Screen size: about 330,000 compounds; about 7,700 (2.3%) were called active. The inconclusive results got no clear call from the source; some entries with a clear call stand among them for comparison. Calls come from the whole dose curve; as a rule, active = well fitted inhibition curve with a large enough effect; inconclusive = small, poorly fitted or top-dose-only effect, or effect the other way; inactive = flat fitted curve, though single readings scatter. Where the call is inconclusive, the potency comes from a doubtful curve fit.
Experiment: qHTS screen for small molecules that inhibit ELG1-dependent DNA repair in human embryonic kidney (HEK293T) cells expressing luciferase-tagged ELG1; note: nearly all actives have a fitted effect of over 55% in size
Conditions: HEK293T ELG1-luciferase reporter, luminescence, 16 h, DNA damage induced by 5-fluorouridine; activity change, negative = inhibition: at 46.1 µM (top of the series)
Procedure, shortened: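 HEK293T cells expressing luciferase-tagged ELG1 (2,000/well) received 5-Fluorouridine plus compound or DMSO for 16 hr at 37 °C. Luciferase was read by ONE-Glo luminescence after 30 min at room temperature.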
% is set by controls: 0 for no effect and ±100 for the full control effect; potency is the fitted concentration of half-maximal effect.

| Structure (SMILES) | activity change, negative = inhibition | Potency |
| --- | --- | --- |
| CC(=O)Nc1ccc(S(=O)(=O)N(C)CC(=O)OCC(=O)N2CCCC2=O)cc1 | inactive: 22.2% | – |
| COc1ccccc1NC(=O)CN(Cc1ccco1)C(=O)c1cc2ccccc2o1 | – | inconclusive: 23.1 µM [inhibitor, single point] |
| CCN(CC)C(=O)N1c2ccccc2Sc2ccccc21 | inactive: 6.5% | – |
| O=C(Cc1cccc2ccccc12)N/N=C1\CCCc2ccccc21 | – | inconclusive: 13 µM [inhibitor, partial curve, poor fit] |
| N#Cc1cccnc1Nc1cccc(Cl)c1 | – | inconclusive: 18.4 µM [activator, single point] |
| Clc1ccc(OCc2cn3cccnc3n2)c2ncccc12 | – | inconclusive: 16.4 µM [activator, partial curve] |
| CN1CCN(/N=C/c2c3ccccc3c(Cl)c3ccccc23)CC1 | inactive: 1.62% | – |
| COc1cc(/C=N/NC(=O)CN2CCOCC2)ccc1OCc1ccccc1 | – | inconclusive: 18.4 µM [activator, single point] |
| C/C(O)=C\c1nc2ccccc2oc1=O | inactive: -14.1% | – |
| O=C(Nc1ccc(S(=O)(=O)N2CCCC2)cc1)c1ccccc1 | inactive: -12.5% | – |
| CC1(C)CC(=O)c2sc(NC(=O)C(C)(C)C)nc2C1 | – | inconclusive: 18.3 µM [activator, partial curve] |
| Cc1cc(C)c(S(=O)(=O)N2CCCOC2CNC(=O)C(=O)NCCc2c[nH]c3ccccc23)c(C)c1 (stereo unspecified) | – | inconclusive: 13 µM [inhibitor, partial curve] |
| C/C(CC(=O)Nc1ccc(F)cc1F)=N\NC(=O)C(=O)N1CCCCC1 | – | inconclusive: 14.6 µM [activator, partial curve] |
| Cc1cc(C)nc(NS(=O)(=O)c2ccc(NC(=O)c3snnc3C)cc2)n1 | – | inconclusive: 18.3 µM [activator, partial curve, poor fit] |
| O=C(Nc1cccnc1Cl)c1cc([N+](=O)[O-])ccc1Cl | – | inconclusive: 2.06 µM [activator, partial curve] |
| O=C1NCCCC1C(=O)N/N=C/c1cccc(Cl)c1 (stereo unspecified) | – | inconclusive: 29.1 µM [activator, single point] |
| COc1ccc(Cc2c(Cl)ncnc2Cl)cc1 | – | inconclusive: 25.9 µM [activator, single point] |
| COc1ccc(NC(=O)c2cc(-c3ccccc3Cl)on2)cc1 | – | inconclusive: 29.1 µM [activator, single point] |
| O=C(CCC1CCCC1)Nc1cc(C(F)(F)F)ccc1N1CCOCC1 | – | inconclusive: 18.3 µM [activator, single point] |
| CCc1c(C)sc(NC(=O)c2ccco2)c1C#N | – | inconclusive: 20.6 µM [activator, partial curve] |
| CC/C(Cc1ccccc1)=N/NC(=O)c1cccc(Br)c1 | inactive: 7.11% | – |
| COCc1nnc(NC(=O)c2ccc(OC)cc2OC)s1 | – | inconclusive: 3.66 µM [activator, full curve] |
| O=C(NCCc1c[nH]c2ccccc12)c1cnc2n(c1=O)CCS2 | – | inconclusive: 18.4 µM [activator, partial curve] |
| COc1ccc(S(=O)(=O)N2CCN(Cc3ccccc3)CC2)c(C)c1 | inactive: -13.3% | – |

| Structure (SMILES) | activity change, negative = inhibition | Potency |
| --- | --- | --- |
| Cc1nc2c(-c3ccc(F)cc3)c(C)nn2c(C)c1CCC(=O)NC(C)CCc1ccco1 (stereo unspecified) | inactive: -20.7% | – |
| C=CCN1CC(C(=O)N2CCC(Cc3ccc(Cl)cc3)(C(=O)OCC)CC2)CC1=O (stereo unspecified) | inactive: 0.481% | – |
| O=C(CN1CCSC1=O)N1CCN(S(=O)(=O)c2ccc(Cl)cc2)CC1 | – | inconclusive: 32.6 µM [activator, partial curve, poor fit] |
| COC(=O)c1cccc(NC(=O)CCNC(=O)c2ccc([N+](=O)[O-])cc2)c1 | – | inconclusive: 29.1 µM [inhibitor, single point] |
| CCCN1CCC(=O)N(CCN=[N+]=[N-])CC1 | inactive: 11.6% | – |
| O=C(NCc1ccc(F)cc1)c1cc(-c2ccncc2)nc2ccccc12 | – | inconclusive: 23.1 µM [inhibitor, partial curve] |
| CC(NS(=O)(=O)c1ccc(F)cc1)C(=O)Nc1ccc2c(c1)OCCO2 (stereo unspecified) | inactive: 17.8% | – |
| N#CCC(=O)Nc1ccc(C(=O)OCC(=O)c2ccc3c(c2)OCO3)cc1 | – | inconclusive: 14.6 µM [activator, partial curve] |
| COC(=O)c1c(C)[nH]c(C(=O)OC(C)C(=O)N2CCOCC2)c1C (stereo unspecified) | – | inconclusive: 5.17 µM [activator, single point] |
| CC(=O)C1C(c2ccc(Br)cc2)c2c(noc2C)CC1(C)O (stereo unspecified) | – | inconclusive: 20.6 µM [inhibitor, partial curve, poor fit] |
| Cc1ccc(Cl)cc1N1CCN(C(=O)Cn2ncn3cccc3c2=O)CC1 | inactive: -11.7% | – |
| CCOc1ccc(C(=S)NC2CCCCC2)cc1 | – | inconclusive: 20.6 µM [activator, partial curve] |
| Cc1nc(-c2ccc(F)cc2)c(CC(=O)N2CCN(S(=O)(=O)c3cccc(Cl)c3)CC2)s1 | – | inconclusive: 29.1 µM [inhibitor, partial curve, poor fit] |
| O=C(Nc1ccc2nc(-c3ccco3)[nH]c2c1)c1ccco1 | – | inconclusive: 14.6 µM [activator, partial curve] |
| CN(CC(=O)NCCc1ccc(S(N)(=O)=O)cc1)S(=O)(=O)/C=C/c1ccccc1 | inactive: 1.57% | – |
| COc1cc(CCC(=O)Nc2cnc3ccccc3c2)cc(OC)c1OC | – | inconclusive: 20.6 µM [inhibitor, partial curve] |
| COc1cccc(/C=N/NC(=O)C(=O)NCc2ccco2)c1OC | inactive: -0.283% | – |
| CN(CCOc1ccc(Cl)cc1)C(=O)C1CCN(C(=O)c2ccc(Cl)cc2)CC1 | – | inconclusive: 25.9 µM [inhibitor, single point] |
| COc1cccc(NC(=O)CN(C)C(=O)COc2ccccc2Cc2ccccc2)c1 | – | inconclusive: 25.9 µM [inhibitor, single point] |
| CCN1CCN(c2ccc(NC(=O)CCc3c(C)nc4c(-c5ccc(F)cc5)c(C)nn4c3C)cc2)CC1 | – | inconclusive: 29.1 µM [activator, single point] |
| COc1ccc(-c2csc(Nc3cccnc3)n2)cc1OC | – | inconclusive: 16.4 µM [inhibitor, partial curve, poor fit] |
| Cc1c(C(=O)N2CCN(c3ccccc3F)CC2)sc2nc(-c3ccccc3)cn12 | – | inconclusive: 23.1 µM [inhibitor, single point] |
| COc1ccc(N2CCN(C(=O)CN(c3ccccc3)S(=O)(=O)c3ccc(OC)cc3)CC2)cc1 | – | inconclusive: 20.6 µM [inhibitor, partial curve] |
| CCOC(=O)c1c(NC(=O)CSc2nnc(C)o2)sc(C)c1C | – | inconclusive: 0.651 µM [activator, single point] |

Laid out differently: four of the compounds above.
Structure (SMILES)	activity change, negative = inhibition	Potency
COc1ccc(Cc2c(Cl)ncnc2Cl)cc1	–	inconclusive: 25.9 µM [activator, single point]
C=CCN1CC(C(=O)N2CCC(Cc3ccc(Cl)cc3)(C(=O)OCC)CC2)CC1=O (stereo unspecified)	inactive: 0.481%	–
O=C(CN1CCSC1=O)N1CCN(S(=O)(=O)c2ccc(Cl)cc2)CC1	–	inconclusive: 32.6 µM [activator, partial curve, poor fit]
CCN1CCN(c2ccc(NC(=O)CCc3c(C)nc4c(-c5ccc(F)cc5)c(C)nn4c3C)cc2)CC1	–	inconclusive: 29.1 µM [activator, single point]

Continuation:

| Structure (SMILES) | activity change, negative = inhibition | Potency |
| --- | --- | --- |
| O=C1NC(Nc2nccs2)(C(F)(F)F)C(=O)N1CCc1ccccc1 (stereo unspecified) | inactive: -16.5% | – |
| O=C(Nc1ccccc1)c1ccc(COc2ccccc2)cc1 | – | inconclusive: 8.2 µM [activator, partial curve, poor fit] |
| Cc1[nH]n(-c2ccccc2)c(=O)c1N=Nc1ccccc1C(=O)N1CCOCC1 | – | inconclusive: 29.1 µM [inhibitor, single point] |
| Cc1ccc(C(=O)N2CCn3c(C)ccc3C2C)cc1 (stereo unspecified) | inactive: -9.86% | – |
| CCOc1ccc(NC(=O)CSc2nnc(C34CC5CC(CC(C5)C3)C4)n2C)cc1 | – | inconclusive: 29.1 µM [inhibitor, single point] |
| Brc1ccccc1-n1nnc(-c2nccs2)n1 | – | inconclusive: 9.2 µM [activator, partial curve] |
| CCN(CC)CC(=O)Nc1ccccc1SCC(=O)Nc1ccsc1C(=O)OC | – | inconclusive: 18.3 µM [inhibitor, single point] |
| CC(C)Cc1nnc(NC(=O)C2=COCCO2)s1 | – | inconclusive: 10.3 µM [activator, partial curve] |
| CSc1nc(SCC(=O)O)c2c3c(sc2n1)COC(C)(C)C3 | – | inconclusive: 10.3 µM [activator, partial curve, poor fit] |
| COc1ccccc1NC(=O)/C=C1\SCC(=O)N1C | – | inconclusive: 18.3 µM [activator, single point] |
| COc1ccc(Cl)cc1NC(=O)c1cc(-c2cc(C)ccc2O)n[nH]1 | inactive: -10.8% | – |
| Cn1c(=O)cc(SCC(=O)NCCC2=CCCCC2)c2ccc(Cl)cc21 | inactive: 6.07% | – |
| CC(C)(C)c1cccc(C2(O)C(=O)c3ccccc3C2=O)c1O | inactive: -21.8% | – |
| CCOC(=O)CSC1=NC(=O)CS1 | inactive: 1.65% | – |
| COc1cc(CNS(=O)(=O)c2ccc3c(c2)CC(C)N3C(C)=O)cc(OC)c1OC (stereo unspecified) | inactive: -3.93% | – |
| c1ccc(CCNc2ncnc3scc(C4COc5ccccc5O4)c23)cc1 (stereo unspecified) | – | inconclusive: 29.1 µM [inhibitor, single point] |
| O=C1C2C3C=CC(C3)C2C(=O)N1c1n[nH]c(CCc2ccccc2)n1 (stereo unspecified) | inactive: 12.1% | – |
| CSCCC(NC(=O)c1ccco1)c1nc2ccccc2[nH]1 (stereo unspecified) | inactive: 4.34% | – |
| COc1cccc(Nc2cc(C)nc3ccccc23)c1 | – | inconclusive: 29.1 µM [inhibitor, single point] |
| Cc1cccc(-c2nnc(N)s2)c1 | – | inconclusive: 29.1 µM [activator, single point] |
| COc1cc(C2SCCS2)cc(Br)c1Oc1ncccc1[N+](=O)[O-] | – | inconclusive: 18.3 µM [inhibitor, partial curve] |
| O=C(C1=C[C@H](c2csc3ccccc23)C[C@H](OCCCCO)O1)N1CCN(Cc2ccc3c(c2)OCO3)CC1 | – | inconclusive: 23.1 µM [inhibitor, single point] |
| COc1cccc(C(=O)NNC(=O)c2ccccc2)c1 | – | inconclusive: 20.6 µM [activator, partial curve] |

Source: PubChem BioAssay AID504467 (National Center for Advancing Translational Sciences (NCATS), 2011)
